These are yes or no findings as the source states them, for the method shown. Some binding calls cover weakened binding; strength is not graded here.

The chains behind the UniProt entries cited, without tags or fusion partners.
UniProt P56536: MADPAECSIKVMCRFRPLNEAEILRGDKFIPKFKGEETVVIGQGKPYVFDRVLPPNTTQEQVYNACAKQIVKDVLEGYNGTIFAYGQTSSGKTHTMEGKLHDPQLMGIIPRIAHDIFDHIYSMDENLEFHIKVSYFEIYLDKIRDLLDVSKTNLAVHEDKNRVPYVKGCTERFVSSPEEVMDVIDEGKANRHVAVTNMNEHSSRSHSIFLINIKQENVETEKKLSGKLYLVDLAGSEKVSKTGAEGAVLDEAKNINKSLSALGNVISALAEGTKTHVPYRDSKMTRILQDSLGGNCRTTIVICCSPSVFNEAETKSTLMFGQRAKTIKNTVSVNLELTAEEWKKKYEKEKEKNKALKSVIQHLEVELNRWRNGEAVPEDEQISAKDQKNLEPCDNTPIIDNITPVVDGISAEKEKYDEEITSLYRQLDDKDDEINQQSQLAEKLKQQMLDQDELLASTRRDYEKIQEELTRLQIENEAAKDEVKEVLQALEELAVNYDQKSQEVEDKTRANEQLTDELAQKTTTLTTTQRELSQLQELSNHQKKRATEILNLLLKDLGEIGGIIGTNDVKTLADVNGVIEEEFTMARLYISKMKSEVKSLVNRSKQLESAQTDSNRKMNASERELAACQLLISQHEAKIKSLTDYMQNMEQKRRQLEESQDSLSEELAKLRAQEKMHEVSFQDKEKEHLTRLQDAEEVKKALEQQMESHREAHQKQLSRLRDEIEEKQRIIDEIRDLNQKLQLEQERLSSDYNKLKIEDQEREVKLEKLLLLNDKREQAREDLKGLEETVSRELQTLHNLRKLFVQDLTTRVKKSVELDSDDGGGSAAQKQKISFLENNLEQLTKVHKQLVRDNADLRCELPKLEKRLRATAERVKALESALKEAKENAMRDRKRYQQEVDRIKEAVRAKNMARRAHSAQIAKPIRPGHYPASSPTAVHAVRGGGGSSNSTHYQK

For this experiment, the target named is KIF5C (wild-type kinesin heavy chain) (UniProt P56536). Description: SEC; His6-KIF5C constructs and untagged KLC1 constructs co-expressed in E. coli, His-Trap, then Superose 6 10/300 in 20 mM Hepes pH 7.4, 150 mM NaCl, 1 mM MgCl2, 0.1 mM ADP, 0.5 mM TCEP; fractions on SDS-PAGE. (Size exclusion chromatography separates by hydrodynamic size, large species first.)

For the substance “KIF5C (wild-type kinesin heavy chain) (from UniProt P56536 1-955)”, the binding entry is on record as “binds”.

(Values after publication PMC13078783.)
